Source: the supplement of paper PMC10849652
This is one part of the list.

Protein sequences, listed by entry. Tags and fused reporters are not part of them. Lines headed by an entry give the natural chain unless they say otherwise; changes in a name come on top.
UniProt Q9H3N1: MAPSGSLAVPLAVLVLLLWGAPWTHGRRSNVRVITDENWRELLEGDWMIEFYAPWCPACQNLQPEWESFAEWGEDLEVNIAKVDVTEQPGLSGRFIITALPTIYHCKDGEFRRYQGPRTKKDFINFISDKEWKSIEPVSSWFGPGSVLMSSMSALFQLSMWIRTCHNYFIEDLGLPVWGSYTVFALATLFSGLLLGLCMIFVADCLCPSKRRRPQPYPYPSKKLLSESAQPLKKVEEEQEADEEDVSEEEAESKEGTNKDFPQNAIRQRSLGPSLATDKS
UniProt Q96HA7: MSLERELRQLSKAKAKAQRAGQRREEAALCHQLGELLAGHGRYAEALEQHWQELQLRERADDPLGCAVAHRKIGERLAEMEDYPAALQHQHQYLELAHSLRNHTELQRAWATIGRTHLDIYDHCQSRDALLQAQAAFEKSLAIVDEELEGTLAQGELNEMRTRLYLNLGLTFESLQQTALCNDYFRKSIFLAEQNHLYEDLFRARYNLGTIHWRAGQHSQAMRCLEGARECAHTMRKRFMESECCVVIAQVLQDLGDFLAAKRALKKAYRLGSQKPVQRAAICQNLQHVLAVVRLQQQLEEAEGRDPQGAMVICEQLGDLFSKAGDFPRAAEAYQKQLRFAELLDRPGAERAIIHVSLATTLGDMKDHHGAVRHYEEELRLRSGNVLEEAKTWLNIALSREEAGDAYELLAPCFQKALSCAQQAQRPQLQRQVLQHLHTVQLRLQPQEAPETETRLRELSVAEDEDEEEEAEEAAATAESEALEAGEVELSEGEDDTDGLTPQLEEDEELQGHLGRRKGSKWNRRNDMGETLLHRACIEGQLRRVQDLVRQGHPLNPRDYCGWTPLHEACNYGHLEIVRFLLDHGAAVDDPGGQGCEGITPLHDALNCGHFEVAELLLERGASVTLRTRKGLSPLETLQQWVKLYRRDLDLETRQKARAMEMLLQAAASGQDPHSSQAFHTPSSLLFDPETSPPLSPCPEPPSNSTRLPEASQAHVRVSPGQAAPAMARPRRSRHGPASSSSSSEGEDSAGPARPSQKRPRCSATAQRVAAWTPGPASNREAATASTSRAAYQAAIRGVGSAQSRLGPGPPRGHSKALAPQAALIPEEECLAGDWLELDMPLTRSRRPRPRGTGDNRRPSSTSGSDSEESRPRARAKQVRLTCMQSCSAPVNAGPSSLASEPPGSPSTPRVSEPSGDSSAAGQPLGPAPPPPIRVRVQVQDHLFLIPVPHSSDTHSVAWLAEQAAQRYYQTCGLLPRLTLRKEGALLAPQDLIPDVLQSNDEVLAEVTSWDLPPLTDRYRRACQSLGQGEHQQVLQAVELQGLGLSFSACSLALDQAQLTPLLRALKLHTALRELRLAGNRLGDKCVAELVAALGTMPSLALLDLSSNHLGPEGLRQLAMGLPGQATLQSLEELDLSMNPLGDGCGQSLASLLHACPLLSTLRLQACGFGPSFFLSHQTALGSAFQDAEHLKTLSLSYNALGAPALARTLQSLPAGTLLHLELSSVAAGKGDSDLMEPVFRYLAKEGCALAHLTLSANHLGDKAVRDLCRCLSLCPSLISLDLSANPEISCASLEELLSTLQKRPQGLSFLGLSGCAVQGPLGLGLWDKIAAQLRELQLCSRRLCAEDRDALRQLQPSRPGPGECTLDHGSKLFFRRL
UniProt Q6PI78: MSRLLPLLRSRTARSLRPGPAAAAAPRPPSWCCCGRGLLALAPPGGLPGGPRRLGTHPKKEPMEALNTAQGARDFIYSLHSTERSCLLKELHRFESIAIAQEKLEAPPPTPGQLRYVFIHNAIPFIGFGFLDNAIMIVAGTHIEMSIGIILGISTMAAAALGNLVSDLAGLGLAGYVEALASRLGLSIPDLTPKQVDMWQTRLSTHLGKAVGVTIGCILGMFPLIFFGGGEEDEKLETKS
UniProt O14656: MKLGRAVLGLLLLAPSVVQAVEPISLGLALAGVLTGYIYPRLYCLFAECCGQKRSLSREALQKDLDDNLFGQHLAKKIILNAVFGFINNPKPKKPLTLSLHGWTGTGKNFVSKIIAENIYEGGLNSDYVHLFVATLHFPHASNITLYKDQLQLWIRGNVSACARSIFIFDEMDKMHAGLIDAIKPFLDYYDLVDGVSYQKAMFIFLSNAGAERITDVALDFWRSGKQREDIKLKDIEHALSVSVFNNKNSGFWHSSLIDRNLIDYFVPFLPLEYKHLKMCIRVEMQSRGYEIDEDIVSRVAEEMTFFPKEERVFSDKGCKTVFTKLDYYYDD
UniProt Q5SWH9: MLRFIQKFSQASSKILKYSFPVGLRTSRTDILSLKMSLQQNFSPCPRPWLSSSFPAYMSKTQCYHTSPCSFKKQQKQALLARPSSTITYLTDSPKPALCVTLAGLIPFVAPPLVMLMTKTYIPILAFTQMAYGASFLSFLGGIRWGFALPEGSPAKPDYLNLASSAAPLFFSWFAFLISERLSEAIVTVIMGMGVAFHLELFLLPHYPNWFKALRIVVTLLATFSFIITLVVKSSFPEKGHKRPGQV
UniProt Q9UPQ9, whole entry, looked up: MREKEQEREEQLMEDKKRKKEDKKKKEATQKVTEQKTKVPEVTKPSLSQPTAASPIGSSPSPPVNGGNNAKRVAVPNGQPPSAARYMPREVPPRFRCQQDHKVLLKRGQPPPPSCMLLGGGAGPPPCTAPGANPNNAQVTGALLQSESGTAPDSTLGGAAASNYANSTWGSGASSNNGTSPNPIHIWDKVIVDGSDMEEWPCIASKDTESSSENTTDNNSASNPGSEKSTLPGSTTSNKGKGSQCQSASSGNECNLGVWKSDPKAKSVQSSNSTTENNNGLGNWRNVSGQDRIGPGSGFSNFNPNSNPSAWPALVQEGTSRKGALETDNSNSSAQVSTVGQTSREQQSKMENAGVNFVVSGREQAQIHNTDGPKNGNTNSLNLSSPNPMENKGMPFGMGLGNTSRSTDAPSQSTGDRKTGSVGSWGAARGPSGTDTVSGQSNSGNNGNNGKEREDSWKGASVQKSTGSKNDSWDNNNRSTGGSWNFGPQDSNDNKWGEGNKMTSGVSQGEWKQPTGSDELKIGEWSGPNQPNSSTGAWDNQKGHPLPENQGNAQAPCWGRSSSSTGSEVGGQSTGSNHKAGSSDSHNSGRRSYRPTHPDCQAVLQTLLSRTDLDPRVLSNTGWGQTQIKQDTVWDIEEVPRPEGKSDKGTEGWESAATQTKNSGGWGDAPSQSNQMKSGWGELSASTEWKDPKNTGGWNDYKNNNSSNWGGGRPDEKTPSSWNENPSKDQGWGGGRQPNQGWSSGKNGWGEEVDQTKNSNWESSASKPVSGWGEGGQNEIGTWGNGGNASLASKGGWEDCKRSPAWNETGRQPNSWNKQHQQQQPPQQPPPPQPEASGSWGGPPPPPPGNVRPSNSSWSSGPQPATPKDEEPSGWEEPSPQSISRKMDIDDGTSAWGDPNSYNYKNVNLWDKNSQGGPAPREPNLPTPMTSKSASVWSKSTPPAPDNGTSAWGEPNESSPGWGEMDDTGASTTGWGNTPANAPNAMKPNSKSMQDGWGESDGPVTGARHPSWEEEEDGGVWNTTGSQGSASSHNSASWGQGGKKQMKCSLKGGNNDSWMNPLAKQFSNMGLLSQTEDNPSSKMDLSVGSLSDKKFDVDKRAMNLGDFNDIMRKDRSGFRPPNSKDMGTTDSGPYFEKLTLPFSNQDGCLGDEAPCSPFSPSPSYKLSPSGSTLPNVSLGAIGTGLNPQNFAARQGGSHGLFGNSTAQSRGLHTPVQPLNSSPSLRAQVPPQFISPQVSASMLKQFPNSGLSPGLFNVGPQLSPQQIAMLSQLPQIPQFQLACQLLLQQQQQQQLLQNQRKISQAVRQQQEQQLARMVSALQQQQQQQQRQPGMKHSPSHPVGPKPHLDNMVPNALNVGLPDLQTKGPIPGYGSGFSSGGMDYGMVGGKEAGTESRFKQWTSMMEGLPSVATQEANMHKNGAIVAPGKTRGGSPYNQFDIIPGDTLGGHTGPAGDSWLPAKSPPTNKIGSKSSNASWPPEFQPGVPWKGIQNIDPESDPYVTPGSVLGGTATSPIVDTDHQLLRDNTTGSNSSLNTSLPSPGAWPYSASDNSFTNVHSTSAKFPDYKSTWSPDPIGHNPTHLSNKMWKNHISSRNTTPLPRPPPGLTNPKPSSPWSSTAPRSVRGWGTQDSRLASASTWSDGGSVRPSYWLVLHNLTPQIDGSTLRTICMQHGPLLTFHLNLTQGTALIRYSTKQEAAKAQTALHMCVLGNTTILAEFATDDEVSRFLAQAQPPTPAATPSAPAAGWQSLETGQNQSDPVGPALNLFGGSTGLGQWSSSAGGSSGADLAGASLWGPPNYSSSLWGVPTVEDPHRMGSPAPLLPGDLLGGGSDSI
UniProt P51580: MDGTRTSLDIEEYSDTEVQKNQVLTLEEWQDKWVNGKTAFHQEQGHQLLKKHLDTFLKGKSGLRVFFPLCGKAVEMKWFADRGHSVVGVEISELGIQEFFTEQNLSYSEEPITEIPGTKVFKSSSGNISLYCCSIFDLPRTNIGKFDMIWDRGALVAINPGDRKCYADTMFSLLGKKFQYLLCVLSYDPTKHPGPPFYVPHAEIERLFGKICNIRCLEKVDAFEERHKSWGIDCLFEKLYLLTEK
UniProt O60784, whole entry, looked up: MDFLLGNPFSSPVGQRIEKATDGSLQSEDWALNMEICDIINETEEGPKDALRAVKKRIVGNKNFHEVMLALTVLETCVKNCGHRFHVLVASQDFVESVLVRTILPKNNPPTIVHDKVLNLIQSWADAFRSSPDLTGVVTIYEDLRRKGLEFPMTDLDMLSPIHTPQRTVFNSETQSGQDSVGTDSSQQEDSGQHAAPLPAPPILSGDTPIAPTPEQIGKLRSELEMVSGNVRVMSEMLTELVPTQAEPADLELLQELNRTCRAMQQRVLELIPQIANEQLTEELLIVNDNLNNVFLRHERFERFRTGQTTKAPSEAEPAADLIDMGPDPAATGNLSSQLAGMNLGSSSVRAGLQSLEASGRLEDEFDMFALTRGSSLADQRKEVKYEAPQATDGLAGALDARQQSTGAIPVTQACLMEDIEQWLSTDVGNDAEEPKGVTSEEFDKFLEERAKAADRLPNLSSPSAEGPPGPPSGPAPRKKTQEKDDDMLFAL
UniProt Q8NBN3: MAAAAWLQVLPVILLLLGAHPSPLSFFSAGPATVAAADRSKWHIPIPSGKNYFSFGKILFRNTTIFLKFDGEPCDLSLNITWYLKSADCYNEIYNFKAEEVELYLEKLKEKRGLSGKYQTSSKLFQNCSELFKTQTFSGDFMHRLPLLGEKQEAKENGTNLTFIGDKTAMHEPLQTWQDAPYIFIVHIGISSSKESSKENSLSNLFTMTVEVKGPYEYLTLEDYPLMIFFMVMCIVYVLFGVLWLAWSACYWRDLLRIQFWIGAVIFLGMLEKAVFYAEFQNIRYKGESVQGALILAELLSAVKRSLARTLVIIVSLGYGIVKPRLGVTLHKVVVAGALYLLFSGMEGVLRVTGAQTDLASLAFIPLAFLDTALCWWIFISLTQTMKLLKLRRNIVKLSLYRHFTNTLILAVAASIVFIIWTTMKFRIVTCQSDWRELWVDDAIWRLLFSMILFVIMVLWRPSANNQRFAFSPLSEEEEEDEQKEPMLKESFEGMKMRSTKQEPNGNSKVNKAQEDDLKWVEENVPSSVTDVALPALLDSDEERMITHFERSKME
UniProt Q5BJF2, whole entry, looked up: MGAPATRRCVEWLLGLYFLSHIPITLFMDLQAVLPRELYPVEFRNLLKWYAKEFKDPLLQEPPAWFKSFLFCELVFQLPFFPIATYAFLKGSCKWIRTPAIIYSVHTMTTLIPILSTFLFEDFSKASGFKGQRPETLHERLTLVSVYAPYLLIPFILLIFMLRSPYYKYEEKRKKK
UniProt O94826, whole entry, looked up: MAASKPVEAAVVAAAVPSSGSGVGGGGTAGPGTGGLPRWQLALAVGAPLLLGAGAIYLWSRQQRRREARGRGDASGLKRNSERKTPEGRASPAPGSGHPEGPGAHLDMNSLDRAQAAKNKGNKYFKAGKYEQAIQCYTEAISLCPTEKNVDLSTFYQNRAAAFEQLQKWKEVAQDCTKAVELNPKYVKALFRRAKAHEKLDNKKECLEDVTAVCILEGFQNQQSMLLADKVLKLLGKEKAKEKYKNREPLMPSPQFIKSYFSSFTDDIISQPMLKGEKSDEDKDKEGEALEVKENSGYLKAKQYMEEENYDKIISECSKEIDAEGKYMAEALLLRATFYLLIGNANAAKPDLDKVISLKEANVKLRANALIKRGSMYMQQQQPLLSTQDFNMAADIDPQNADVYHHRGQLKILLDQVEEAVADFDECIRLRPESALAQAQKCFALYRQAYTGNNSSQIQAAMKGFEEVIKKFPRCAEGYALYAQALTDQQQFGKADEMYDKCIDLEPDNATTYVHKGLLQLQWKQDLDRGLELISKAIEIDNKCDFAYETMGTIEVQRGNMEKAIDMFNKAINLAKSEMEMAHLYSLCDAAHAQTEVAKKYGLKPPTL
UniProt P13693: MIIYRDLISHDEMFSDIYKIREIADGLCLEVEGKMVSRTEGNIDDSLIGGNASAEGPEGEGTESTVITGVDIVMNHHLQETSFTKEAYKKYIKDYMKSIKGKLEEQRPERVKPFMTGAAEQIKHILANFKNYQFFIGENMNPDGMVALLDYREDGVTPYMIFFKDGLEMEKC

Tests used:
Test in all cases: log2 fold change, soluble protein after heating vs DMSO (PISA); higher = thermal stabilisation; K562 lysate, 10 uM; active = over 0.2 and 3.5 SD of the protein, either way, in both replicates (recomputed)
erlotinib = compound: C#Cc1cccc(Nc2ncnc3cc(OCCOC)c(OCCOC)cc23)c1 [erlotinib]
How it was run: (§1)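 K562 pellets were dounce-homogenised in PBS pH 7.4 with 1 mM MgCl2, and the crude extract at 1 mg/mL protein was treated with 10 μM compound for 30 min. Aliquots were heated for 3 min across 48°C-58°C, pooled, and brought to 0.5% NP-40 at 4°C; soluble protein was the supernatant after 21,000xg for 90 min. Soluble protein was quantified by TMTpro 16plex LC-MS/MS with channel sums equalised, and reported as log2 fold change in thermal stability against DMSO controls, with values from duplicates.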

[1] = compound: C/C(=N\NC(=O)C1=CC(=CC=C1)S(=O)(=O)N2CCOCC2)/C3=C(C=CC(=C3)Cl)O
How it was run: as §1

[2] = compound: C1=CC(=CC=C1C2=NC3=C(N2)C=C(C=C3)C(=O)N)OC4=CC=C(C=C4)Cl
How it was run: as §1

[3] = compound: C1=CC2=C(C=CC(=C2)/C=C\3/C(=O)NC(=NCC4=CC=CS4)S3)N=C1
How it was run: as §1

[4] = compound: C1=CC2=NC=CN=C2C=C1/C=C/3\C(=O)NC(=O)S3
How it was run: as §1

[5] = compound: C1=CC=C(C=C1)C2=NC(=C(N2)C3=CC=NC=C3)C4=CC(=C(C=C4)Cl)O
How it was run: as §1

[6] = compound: C1=CC=C2C(=C1)C3=NNC4=CC=CC(=C43)C2=O
How it was run: as §1

[7] = compound: C1CCN(C1)C(=O)NC2=CC=CC(=C2)NC3=NC=C(C(=N3)NCCC4=CN=CN4)Br
How it was run: as §1

[8] = compound: C1CN(CCC1(CC2=CC=C(C=C2)Cl)N)C3=NC=NC4=C3C=CN4
How it was run: as §1

IRAK-1-4 Inhibitor I = compound: C1COCCN1CCN2C3=CC=CC=C3N=C2NC(=O)C4=CC(=CC=C4)[N+](=O)[O-] [IRAK-1-4 Inhibitor I]
How it was run: as §1

ibrutinib = compound: C=CC(=O)N1CCC[C@@H](n2nc(-c3ccc(Oc4ccccc4)cc3)c3c(N)ncnc32)C1 [ibrutinib]
How it was run: as §1

[9] = compound: CC(=O)c1cnc2ccc(-c3cc(Cl)c(O)c(Cl)c3)nc2c1N[C@H]1CC[C@H](CN(C)C)CC1
How it was run: as §1

ralimetinib = compound: CC(C)(C)Cn1c(N)nc2ccc(-c3[nH]c(C(C)(C)C)nc3-c3ccc(F)cc3)nc21 [ralimetinib]
How it was run: as §1

[10] = compound: CC(C)(O)CC(=O)NCCn1ccc2ncnc(Nc3ccc(Oc4cccc(C(F)(F)F)c4)c(Cl)c3)c21
How it was run: as §1

[11] = compound: CC(C)C1=C2N=C(C=C(N2N=C1)NCC3=CC=CC=C3)NCCCCCCN
How it was run: as §1

[12] = compound: CC1=C(C(CC(=O)N1)C2=CC=C(C=C2)C(F)(F)F)C(=O)NC3=C(C=C4C(=C3)C=NN4)F
How it was run: as §1

[13] = compound: CC1=C(C2=C(C=C1)C(=O)C3=CC=CC=C3N2CCCN)C
How it was run: as §1

[14] = compound: CC1=C(C=C(C=C1)NC(=O)C2=CC(=CC=C2)C(C)(C)C#N)NC3=CC4=C(C=C3)N=CN(C4=O)C
How it was run: as §1

[15] = compound: CC1=C(C=C(C=C1)NC(=O)C2=CC(=CC=C2)N(C)C)NC(=O)C3=CC=C(C=C3)O
How it was run: as §1

[16] = compound: CC1=CC=C(C=C1)SC2=C3C=C(SC3=CN=C2)C(=O)N
How it was run: as §1

Measured: log2 fold change

TNPO3 (UniProt Q9Y5L0)
inactive: erlotinib 0.022 | [1] 0.001 | [2] -0.019 | [3] -0.018 | [4] 0.019 | [5] -0.008 | [6] 0 | [7] 0.018 | [8] 0.017 | IRAK-1-4 Inhibitor I 0.021 | ibrutinib -0.008 | [9] 0.015 | ralimetinib 0.003 | [10] -0.023 | [11] -0.033 | [12] -0.006 | [13] 0 | [14] -0.015 | [15] 0.003 | [16] 0.008

TMX1 (UniProt Q9H3N1)
inactive: erlotinib -0.036 | [1] 0.019 | [2] -0.02 | [3] 0.003 | [4] 0.019 | [5] -0.012 | [6] -0.005 | [7] -0.003 | [8] 0.014 | IRAK-1-4 Inhibitor I -0.032 | ibrutinib -0.019 | [9] 0.024 | ralimetinib -0.009 | [10] 0.024 | [11] -0.009 | [12] 0.001 | [13] 0.006 | [14] -0.014 | [15] -0.048 | [16] 0.047

TONSL (UniProt Q96HA7)
inactive: erlotinib -0.04 | [1] -0.022 | [2] 0.123 | [3] -0.018 | [4] 0.082 | [5] 0.011 | [6] 0.031 | [7] -0.07 | [8] 0.039 | IRAK-1-4 Inhibitor I -0.018 | ibrutinib -0.102 | [9] -0.066 | ralimetinib 0.011 | [10] 0.007 | [11] -0.137 | [12] 0.005 | [13] -0.007 | [14] -0.025 | [15] 0.052 | [16] -0.049

TMEM65 (UniProt Q6PI78)
inactive: erlotinib -0.091 | [1] -0.073 | [2] -0.028 | [3] -0.081 | [4] 0.029 | [5] 0.011 | [6] 0.103 | [7] -0.01 | [8] 0.103 | IRAK-1-4 Inhibitor I 0.13 | ibrutinib -0.07 | [9] -0.077 | ralimetinib -0.035 | [10] -0.134 | [11] -0.039 | [12] 0.064 | [13] -0.017 | [14] 0.064 | [15] -0.037 | [16] -0.035

TOR1A (UniProt O14656)
inactive: erlotinib -0.038 | [1] -0.044 | [2] 0.027 | [3] -0.014 | [4] 0.003 | [5] -0.033 | [6] -0.022 | [7] 0.02 | [8] -0.032 | IRAK-1-4 Inhibitor I 0.056 | ibrutinib -0.031 | [9] -0.016 | ralimetinib 0.02 | [10] -0.048 | [11] 0.046 | [12] 0.013 | [13] 0.001 | [14] -0.003 | [15] -0.008 | [16] 0.01

TOM1L1 (UniProt O75674)
inactive: erlotinib -0.035 | [1] -0.064 | [2] 0.026 | [3] -0.006 | [4] 0.021 | [5] -0.003 | [6] 0.013 | [7] -0.037 | [8] -0.005 | IRAK-1-4 Inhibitor I 0.022 | ibrutinib -0.006 | [9] -0.015 | ralimetinib -0.003 | [10] -0.051 | [11] 0.025 | [12] 0.002 | [13] 0.052 | [14] 0.004 | [15] 0.004 | [16] -0.03

TMEM69 (UniProt Q5SWH9)
inactive: erlotinib -0.023 | [1] -0.241 | [2] 0.047 | [3] 0.016 | [4] 0.046 | [5] -0.128 | [6] -0.002 | [7] -0.107 | [8] 0.002 | IRAK-1-4 Inhibitor I 0.086 | ibrutinib -0.024 | [9] 0.03 | ralimetinib 0.002 | [10] 0.011 | [11] -0.121 | [12] 0.025 | [13] -0.038 | [14] -0.015 | [15] 0.015 | [16] -0.073

TNRC6B (UniProt Q9UPQ9)
inactive: erlotinib 0.01 | [1] 0.078 | [2] 0.013 | [3] -0.043 | [4] -0.032 | [5] -0.026 | [6] -0.091 | [7] -0.032 | [8] -0.006 | IRAK-1-4 Inhibitor I -0.004 | ibrutinib 0.027 | [9] -0.052 | ralimetinib -0.016 | [10] -0.021 | [11] -0.01 | [12] 0.029 | [13] -0.01 | [14] -0.144 | [15] 0.018 | [16] -0.057

TPMT (UniProt P51580)
inactive: erlotinib -0.022 | [1] 0.041 | [2] 0 | [3] -0.043 | [4] -0.002 | [5] 0.006 | [6] -0.027 | [7] -0.031 | [8] 0.037 | IRAK-1-4 Inhibitor I -0.018 | ibrutinib -0.003 | [9] -0.008 | ralimetinib -0.009 | [10] 0.04 | [11] -0.027 | [12] -0.015 | [13] 0.031 | [14] -0.005 | [15] -0.027 | [16] -0.006

TOM1 isoform 2 (UniProt O60784)
inactive: erlotinib -0.029 | [1] -0.014 | [2] 0.028 | [3] 0.019 | [4] -0.019 | [5] 0.002 | [6] -0.031 | [7] -0.032 | [8] 0.011 | IRAK-1-4 Inhibitor I 0.003 | ibrutinib -0.01 | [9] 0.03 | ralimetinib 0.037 | [10] -0.064 | [11] 0.017 | [12] -0.001 | [13] -0.03 | [14] 0.039 | [15] -0.027 | [16] -0.018

TMF1 isoform 2 (UniProt P82094)
inactive: erlotinib 0.021 | [1] -0.053 | [2] 0.045 | [3] 0.029 | [4] 0.016 | [5] -0.022 | [6] -0.048 | [7] -0.013 | [8] -0.016 | IRAK-1-4 Inhibitor I 0.028 | ibrutinib 0.024 | [9] 0.005 | ralimetinib 0.004 | [10] 0.016 | [11] 0.013 | [12] -0.071 | [13] -0.012 | [14] 0.029 | [15] -0.007 | [16] -0.03

TMEM87A (UniProt Q8NBN3)
inactive: erlotinib -0.015 | [1] -0.021 | [2] 0.01 | [3] 0.037 | [4] -0.02 | [5] -0.02 | [6] -0.027 | [7] 0.031 | [8] -0.004 | IRAK-1-4 Inhibitor I -0.028 | ibrutinib -0.002 | [9] 0.019 | ralimetinib -0.031 | [10] -0.035 | [11] -0.075 | [12] -0.017 | [13] -0.02 | [14] 0.016 | [15] 0.004 | [16] -0.02

TMEM97 (UniProt Q5BJF2)
inactive: erlotinib 0.01 | [1] 0.043 | [2] 0.036 | [3] 0.007 | [4] 0.019 | [5] 0 | [6] 0.002 | [7] -0.033 | [8] 0.018 | IRAK-1-4 Inhibitor I 0.091 | ibrutinib 0.01 | [9] 0.012 | ralimetinib 0.004 | [10] -0.056 | [11] -0.034 | [12] -0.025 | [13] -0.032 | [14] 0.003 | [15] 0.042 | [16] -0.017

TOMM70 (UniProt O94826)
inactive: erlotinib 0.032 | [1] 0.033 | [2] 0.044 | [3] 0.028 | [4] 0.011 | [5] 0.01 | [6] -0.032 | [7] 0.014 | [8] 0.035 | IRAK-1-4 Inhibitor I 0.002 | ibrutinib -0.043 | [9] -0.026 | ralimetinib -0.021 | [10] 0.029 | [11] 0.053 | [12] -0.025 | [13] 0.041 | [14] -0.01 | [15] 0.023 | [16] 0.002

TMEM263 (UniProt Q8WUH6)
inactive: erlotinib -0.114 | [1] -0.104 | [2] 0.273 | [3] -0.119 | [4] -0.022 | [5] -0.05 | [6] -0.012 | [7] -0.006 | [8] 0.095 | IRAK-1-4 Inhibitor I 0.026 | ibrutinib -0.04 | [9] -0.003 | ralimetinib -0.037 | [10] -0.174 | [11] -0.002 | [12] 0.349 | [13] 0.049 | [14] -0.058 | [15] 0.004 | [16] -0.079

Reprinted from above (5 entries):
TNPO3 (UniProt Q9Y5L0)
inactive: erlotinib 0.022 | [1] 0.001 | [2] -0.019 | [3] -0.018 | [4] 0.019 | [5] -0.008 | [6] 0 | [7] 0.018 | [8] 0.017 | IRAK-1-4 Inhibitor I 0.021 | ibrutinib -0.008 | [9] 0.015 | ralimetinib 0.003 | [10] -0.023 | [11] -0.033 | [12] -0.006 | [13] 0 | [14] -0.015 | [15] 0.003 | [16] 0.008

TMX1 (UniProt Q9H3N1)
inactive: erlotinib -0.036 | [1] 0.019 | [2] -0.02 | [3] 0.003 | [4] 0.019 | [5] -0.012 | [6] -0.005 | [7] -0.003 | [8] 0.014 | IRAK-1-4 Inhibitor I -0.032 | ibrutinib -0.019 | [9] 0.024 | ralimetinib -0.009 | [10] 0.024 | [11] -0.009 | [12] 0.001 | [13] 0.006 | [14] -0.014 | [15] -0.048 | [16] 0.047

TONSL (UniProt Q96HA7)
inactive: erlotinib -0.04 | [1] -0.022 | [2] 0.123 | [3] -0.018 | [4] 0.082 | [5] 0.011 | [6] 0.031 | [7] -0.07 | [8] 0.039 | IRAK-1-4 Inhibitor I -0.018 | ibrutinib -0.102 | [9] -0.066 | ralimetinib 0.011 | [10] 0.007 | [11] -0.137 | [12] 0.005 | [13] -0.007 | [14] -0.025 | [15] 0.052 | [16] -0.049

TMEM65 (UniProt Q6PI78)
inactive: erlotinib -0.091 | [1] -0.073 | [2] -0.028 | [3] -0.081 | [4] 0.029 | [5] 0.011 | [6] 0.103 | [7] -0.01 | [8] 0.103 | IRAK-1-4 Inhibitor I 0.13 | ibrutinib -0.07 | [9] -0.077 | ralimetinib -0.035 | [10] -0.134 | [11] -0.039 | [12] 0.064 | [13] -0.017 | [14] 0.064 | [15] -0.037 | [16] -0.035

TOR1A (UniProt O14656)
inactive: erlotinib -0.038 | [1] -0.044 | [2] 0.027 | [3] -0.014 | [4] 0.003 | [5] -0.033 | [6] -0.022 | [7] 0.02 | [8] -0.032 | IRAK-1-4 Inhibitor I 0.056 | ibrutinib -0.031 | [9] -0.016 | ralimetinib 0.02 | [10] -0.048 | [11] 0.046 | [12] 0.013 | [13] 0.001 | [14] -0.003 | [15] -0.008 | [16] 0.01

(continued)

TPT1 (UniProt P13693)
inactive: erlotinib 0.031 | [1] -0.021 | [2] 0.022 | [3] 0.001 | [4] -0.014 | [5] -0.001 | [6] -0.005 | [7] -0.003 | [8] 0.023 | IRAK-1-4 Inhibitor I 0.008 | ibrutinib -0.012 | [9] 0.005 | ralimetinib -0.015 | [10] -0.015 | [11] -0.001 | [12] -0.017 | [13] -0.006 | [14] 0.033 | [15] 0.011 | [16] -0.005
